These are yes or no findings as the source states them, for the method shown. In cells and extracts the contact can be indirect. Some results given as binding are weak or reduced against the parent protein; the word gives no strength. Tags and fused reporters may be left off the sequences shown.

Assay [1] has as its target T1, EMB1270 fused to C-terminal luciferase (EMB1270-cLUC) (Arabidopsis thaliana) (UniProt Q5G1S8).
T1 sequence: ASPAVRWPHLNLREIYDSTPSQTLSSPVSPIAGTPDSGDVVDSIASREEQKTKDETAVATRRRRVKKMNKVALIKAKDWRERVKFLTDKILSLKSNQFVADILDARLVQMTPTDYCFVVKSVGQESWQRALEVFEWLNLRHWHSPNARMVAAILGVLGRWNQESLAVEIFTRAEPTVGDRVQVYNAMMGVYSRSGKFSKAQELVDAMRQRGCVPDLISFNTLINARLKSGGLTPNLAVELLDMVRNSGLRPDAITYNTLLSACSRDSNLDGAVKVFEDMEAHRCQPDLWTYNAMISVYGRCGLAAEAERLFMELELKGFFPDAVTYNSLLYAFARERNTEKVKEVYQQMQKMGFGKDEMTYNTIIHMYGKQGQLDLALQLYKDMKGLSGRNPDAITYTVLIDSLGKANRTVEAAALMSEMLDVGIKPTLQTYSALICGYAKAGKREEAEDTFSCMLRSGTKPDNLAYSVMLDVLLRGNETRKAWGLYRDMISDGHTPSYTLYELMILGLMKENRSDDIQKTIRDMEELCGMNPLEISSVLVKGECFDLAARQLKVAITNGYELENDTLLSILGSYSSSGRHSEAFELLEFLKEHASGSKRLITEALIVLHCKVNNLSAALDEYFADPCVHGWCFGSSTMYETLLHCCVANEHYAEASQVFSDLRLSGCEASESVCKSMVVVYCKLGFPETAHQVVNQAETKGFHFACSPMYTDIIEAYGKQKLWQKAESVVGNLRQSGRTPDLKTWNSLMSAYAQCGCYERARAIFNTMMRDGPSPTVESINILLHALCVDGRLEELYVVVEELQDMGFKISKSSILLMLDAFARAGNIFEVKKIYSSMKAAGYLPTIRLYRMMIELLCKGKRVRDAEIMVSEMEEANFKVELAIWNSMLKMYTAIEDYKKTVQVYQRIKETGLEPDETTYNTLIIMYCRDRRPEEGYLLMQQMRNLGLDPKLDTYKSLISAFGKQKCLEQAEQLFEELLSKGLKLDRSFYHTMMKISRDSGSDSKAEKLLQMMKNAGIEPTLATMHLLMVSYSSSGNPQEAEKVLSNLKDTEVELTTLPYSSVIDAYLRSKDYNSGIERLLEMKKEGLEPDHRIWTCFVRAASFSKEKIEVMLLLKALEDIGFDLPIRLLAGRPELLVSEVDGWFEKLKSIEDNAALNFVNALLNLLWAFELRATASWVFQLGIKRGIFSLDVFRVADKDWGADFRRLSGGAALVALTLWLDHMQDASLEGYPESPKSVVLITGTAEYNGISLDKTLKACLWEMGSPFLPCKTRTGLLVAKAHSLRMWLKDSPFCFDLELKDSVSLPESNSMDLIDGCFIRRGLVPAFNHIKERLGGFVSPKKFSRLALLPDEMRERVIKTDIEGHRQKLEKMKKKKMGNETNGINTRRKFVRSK
Kind of assay: split reporter.

In assay [2] the target is T2, CFM2 fused to C-terminal luciferase (CFM2-cLUC) (Arabidopsis thaliana) (UniProt Q8L7C2).
T2 sequence: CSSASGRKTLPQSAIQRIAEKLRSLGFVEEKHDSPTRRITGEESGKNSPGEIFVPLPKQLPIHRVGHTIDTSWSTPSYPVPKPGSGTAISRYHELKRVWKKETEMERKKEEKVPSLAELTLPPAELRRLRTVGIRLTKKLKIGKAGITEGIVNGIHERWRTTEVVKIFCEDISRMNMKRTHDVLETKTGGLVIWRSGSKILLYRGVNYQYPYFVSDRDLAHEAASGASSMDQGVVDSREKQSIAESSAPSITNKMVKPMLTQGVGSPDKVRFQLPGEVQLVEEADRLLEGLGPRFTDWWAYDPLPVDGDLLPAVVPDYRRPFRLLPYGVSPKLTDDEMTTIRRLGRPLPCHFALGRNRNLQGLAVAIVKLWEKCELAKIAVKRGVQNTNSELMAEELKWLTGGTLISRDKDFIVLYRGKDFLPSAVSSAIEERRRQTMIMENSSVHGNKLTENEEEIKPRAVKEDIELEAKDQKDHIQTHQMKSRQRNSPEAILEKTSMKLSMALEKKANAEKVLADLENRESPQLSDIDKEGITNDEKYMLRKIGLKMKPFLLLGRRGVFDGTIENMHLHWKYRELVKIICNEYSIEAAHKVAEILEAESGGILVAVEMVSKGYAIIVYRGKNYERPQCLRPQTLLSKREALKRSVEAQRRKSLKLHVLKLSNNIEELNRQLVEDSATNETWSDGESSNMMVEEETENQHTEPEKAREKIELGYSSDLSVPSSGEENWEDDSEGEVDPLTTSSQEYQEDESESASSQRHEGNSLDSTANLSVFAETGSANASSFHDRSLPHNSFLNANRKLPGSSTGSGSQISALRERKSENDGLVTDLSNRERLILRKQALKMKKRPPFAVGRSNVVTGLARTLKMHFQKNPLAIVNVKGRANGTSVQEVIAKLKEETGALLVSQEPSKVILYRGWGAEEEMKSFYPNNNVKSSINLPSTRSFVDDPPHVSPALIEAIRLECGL
As to the kind of experiment: split reporter.

Assay [3] concerns the target T3, Myc-tagged EMB1270 (EMB1270-Myc) from EMB1270:EMB1270-Myc/emb1270 plants (Arabidopsis thaliana) (UniProt Q5G1S8).
T3 sequence: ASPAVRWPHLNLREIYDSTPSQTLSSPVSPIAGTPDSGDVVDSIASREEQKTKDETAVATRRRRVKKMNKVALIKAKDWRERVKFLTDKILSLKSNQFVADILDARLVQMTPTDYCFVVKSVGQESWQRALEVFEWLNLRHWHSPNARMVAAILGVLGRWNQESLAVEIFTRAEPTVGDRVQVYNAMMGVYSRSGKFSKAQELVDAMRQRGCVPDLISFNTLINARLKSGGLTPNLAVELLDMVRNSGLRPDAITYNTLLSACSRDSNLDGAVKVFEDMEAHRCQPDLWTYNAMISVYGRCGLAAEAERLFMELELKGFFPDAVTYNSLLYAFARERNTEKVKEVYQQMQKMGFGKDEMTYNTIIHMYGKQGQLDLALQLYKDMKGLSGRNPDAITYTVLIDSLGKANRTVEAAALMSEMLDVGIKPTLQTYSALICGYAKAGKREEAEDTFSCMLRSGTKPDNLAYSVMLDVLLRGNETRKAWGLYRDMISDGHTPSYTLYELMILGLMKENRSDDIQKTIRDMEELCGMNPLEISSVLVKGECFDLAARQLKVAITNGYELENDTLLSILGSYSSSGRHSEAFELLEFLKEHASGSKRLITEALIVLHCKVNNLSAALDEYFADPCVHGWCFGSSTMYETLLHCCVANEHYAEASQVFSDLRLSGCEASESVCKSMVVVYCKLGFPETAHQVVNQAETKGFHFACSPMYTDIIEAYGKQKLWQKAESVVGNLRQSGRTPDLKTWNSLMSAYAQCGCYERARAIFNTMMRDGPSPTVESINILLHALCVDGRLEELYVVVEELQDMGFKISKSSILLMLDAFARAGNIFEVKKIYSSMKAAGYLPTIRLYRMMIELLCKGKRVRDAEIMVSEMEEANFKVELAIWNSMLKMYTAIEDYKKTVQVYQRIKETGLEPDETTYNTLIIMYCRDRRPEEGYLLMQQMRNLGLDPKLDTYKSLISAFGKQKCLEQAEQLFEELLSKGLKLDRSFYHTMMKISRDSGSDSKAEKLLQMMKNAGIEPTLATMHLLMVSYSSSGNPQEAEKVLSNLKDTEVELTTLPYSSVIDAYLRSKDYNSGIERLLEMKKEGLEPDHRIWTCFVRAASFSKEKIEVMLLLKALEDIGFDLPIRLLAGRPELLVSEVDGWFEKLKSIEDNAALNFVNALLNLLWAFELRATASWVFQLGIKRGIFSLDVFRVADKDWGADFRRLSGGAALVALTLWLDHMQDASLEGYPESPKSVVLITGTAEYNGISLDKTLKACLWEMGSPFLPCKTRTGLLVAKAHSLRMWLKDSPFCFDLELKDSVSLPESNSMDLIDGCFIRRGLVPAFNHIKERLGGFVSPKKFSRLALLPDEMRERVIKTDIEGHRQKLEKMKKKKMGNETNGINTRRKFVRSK
As to the kind of experiment: pull-down.

For assay [4], the target named is T4, Myc-tagged CFM2 (CFM2-Myc) from CFM2:CFM2-Myc/cfm2 plants (Arabidopsis thaliana) (UniProt Q8L7C2).
T4 sequence: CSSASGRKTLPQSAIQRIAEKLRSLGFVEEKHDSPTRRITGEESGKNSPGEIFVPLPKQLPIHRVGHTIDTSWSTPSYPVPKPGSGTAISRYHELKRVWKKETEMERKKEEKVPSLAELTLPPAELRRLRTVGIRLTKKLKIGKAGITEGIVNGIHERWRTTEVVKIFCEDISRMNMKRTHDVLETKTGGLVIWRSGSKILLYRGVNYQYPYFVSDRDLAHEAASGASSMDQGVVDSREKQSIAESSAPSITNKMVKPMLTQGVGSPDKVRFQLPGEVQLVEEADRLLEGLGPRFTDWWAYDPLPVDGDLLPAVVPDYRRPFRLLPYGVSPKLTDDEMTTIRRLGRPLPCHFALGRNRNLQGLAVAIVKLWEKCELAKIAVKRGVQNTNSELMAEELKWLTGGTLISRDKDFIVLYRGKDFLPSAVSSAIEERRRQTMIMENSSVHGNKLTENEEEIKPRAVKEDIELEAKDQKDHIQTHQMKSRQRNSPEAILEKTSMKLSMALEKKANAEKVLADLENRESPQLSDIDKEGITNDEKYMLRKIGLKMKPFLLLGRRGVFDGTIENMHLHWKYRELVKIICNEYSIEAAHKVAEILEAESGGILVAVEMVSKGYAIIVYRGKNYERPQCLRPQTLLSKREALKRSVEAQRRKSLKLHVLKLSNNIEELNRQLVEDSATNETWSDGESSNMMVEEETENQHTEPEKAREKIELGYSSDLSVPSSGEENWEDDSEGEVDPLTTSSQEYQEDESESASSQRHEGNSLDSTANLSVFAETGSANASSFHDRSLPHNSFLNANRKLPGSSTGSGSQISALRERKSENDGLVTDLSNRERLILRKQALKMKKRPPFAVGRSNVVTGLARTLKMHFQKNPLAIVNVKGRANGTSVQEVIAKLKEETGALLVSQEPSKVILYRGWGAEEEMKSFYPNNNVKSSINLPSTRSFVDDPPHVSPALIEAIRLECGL
As to the kind of experiment: pull-down.

B1: EMB1006 fused to N-terminal luciferase (EMB1006-nLUC) (protein, UniProt Q9FGR7 45-723)
chain: ATSPSSSSSSPSIFLSCFDDALPDKIQQPENSTINSEESECEEEDDEEGDDFTDPILKFFKSRTLTSESTADPARESKFSLQKNRRTSWHLAPDFADPETEIESKPEESVFVTNQQTLGVHIPFESGVAREILELAKNLKENQTLGEMLSGFERRVSDTECVEALVMMGESGFVKSCLYFYEWMSLQEPSLASPRACSVLFTLLGRERMADYILLLLSNLPDKEEFRDVRLYNAAISGLSASQRYDDAWEVYEAMDKINVYPDNVTCAILITTLRKAGRSAKEVWEIFEKMSEKGVKWSQDVFGGLVKSFCDEGLKEEALVIQTEMEKKGIRSNTIVYNTLMDAYNKSNHIEEVEGLFTEMRDKGLKPSAATYNILMDAYARRMQPDIVETLLREMEDLGLEPNVKSYTCLISAYGRTKKMSDMAADAFLRMKKVGLKPSSHSYTALIHAYSVSGWHEKAYASFEEMCKEGIKPSVETYTSVLDAFRRSGDTGKLMEIWKLMLREKIKGTRITYNTLLDGFAKQGLYIEARDVVSEFSKMGLQPSVMTYNMLMNAYARGGQDAKLPQLLKEMAALNLKPDSITYSTMIYAFVRVRDFKRAFFYHKMMVKSGQVPDPRSYEKLRAILEDKAKTKNRKDKTAILGIINSKFGRVKAKTKGKKDEFWKYKTNRTTSPGRHRS
For the molecule B1, the binding result in assay [1] and in assay [2] was “binds” throughout.

B2: recombinant MBP-EMB1006 (protein, UniProt Q9FGR7 45-723)
chain: ATSPSSSSSSPSIFLSCFDDALPDKIQQPENSTINSEESECEEEDDEEGDDFTDPILKFFKSRTLTSESTADPARESKFSLQKNRRTSWHLAPDFADPETEIESKPEESVFVTNQQTLGVHIPFESGVAREILELAKNLKENQTLGEMLSGFERRVSDTECVEALVMMGESGFVKSCLYFYEWMSLQEPSLASPRACSVLFTLLGRERMADYILLLLSNLPDKEEFRDVRLYNAAISGLSASQRYDDAWEVYEAMDKINVYPDNVTCAILITTLRKAGRSAKEVWEIFEKMSEKGVKWSQDVFGGLVKSFCDEGLKEEALVIQTEMEKKGIRSNTIVYNTLMDAYNKSNHIEEVEGLFTEMRDKGLKPSAATYNILMDAYARRMQPDIVETLLREMEDLGLEPNVKSYTCLISAYGRTKKMSDMAADAFLRMKKVGLKPSSHSYTALIHAYSVSGWHEKAYASFEEMCKEGIKPSVETYTSVLDAFRRSGDTGKLMEIWKLMLREKIKGTRITYNTLLDGFAKQGLYIEARDVVSEFSKMGLQPSVMTYNMLMNAYARGGQDAKLPQLLKEMAALNLKPDSITYSTMIYAFVRVRDFKRAFFYHKMMVKSGQVPDPRSYEKLRAILEDKAKTKNRKDKTAILGIINSKFGRVKAKTKGKKDEFWKYKTNRTTSPGRHRS
With B2, the binding entry in assay [3] and in assay [4] was “binds” each time.

For the origin of these results see article doi:10.1101/2023.12.07.570680.
